According to patent US11999746B2, “Compounds” (GlaxoSmithKline Intellectual Property Development Limited, priority 2014, dated 2024):
Some entries share one result that the patent states for a list of compounds.

Target: recombinant human PLA2-VIIB (Homo sapiens, UniProt Q99487)
Experiment: (2b) Alternative PLA2 VIIB assay (2-thio-PAF substrate)
Format: biochemical
Settings: Examples 266-412 were tested here

| SMILES | selectivity between human recombinant Lp-PLA2 and PLA2 VIIB |
| --- | --- |
| CC(=O)N1CCC2(CC1)Cn1c(cc(OCc3ccc(F)c(F)c3)nc1=O)N2C(C)=O [Example 408, 1,1-(7-((3,4-difluorobenzyl)oxy)-5-oxo-1H-spiro[imidazo[1,2-c]pyrimidine-2,4′-piperidin]-1,1′(3H,5H)-diyl)diethanone] | at least 100 fold |
| O=c1nc(OCc2ccc(F)c(F)c2)cc2n1CC1CNCCN21 (centres unmarked) [Example E274, 7-((3,4-Difluorobenzyl)oxy)-3,4,11,11a-tetrahydro-1H-pyrazino[1′,2′:3,4] imidazo [1,2-c]pyrimidin-9(2H)-one] | at least 100 fold |
